Assay results as given in PMC6062498.
No constants are given. Whether binding was seen depends on the method and setting. In cells and extracts the contact can be indirect. Some results given as binding are weak or reduced against the parent protein; the word gives no strength.

The chains behind the UniProt entries cited, without tags or fusion partners.
UniProt Q7L576: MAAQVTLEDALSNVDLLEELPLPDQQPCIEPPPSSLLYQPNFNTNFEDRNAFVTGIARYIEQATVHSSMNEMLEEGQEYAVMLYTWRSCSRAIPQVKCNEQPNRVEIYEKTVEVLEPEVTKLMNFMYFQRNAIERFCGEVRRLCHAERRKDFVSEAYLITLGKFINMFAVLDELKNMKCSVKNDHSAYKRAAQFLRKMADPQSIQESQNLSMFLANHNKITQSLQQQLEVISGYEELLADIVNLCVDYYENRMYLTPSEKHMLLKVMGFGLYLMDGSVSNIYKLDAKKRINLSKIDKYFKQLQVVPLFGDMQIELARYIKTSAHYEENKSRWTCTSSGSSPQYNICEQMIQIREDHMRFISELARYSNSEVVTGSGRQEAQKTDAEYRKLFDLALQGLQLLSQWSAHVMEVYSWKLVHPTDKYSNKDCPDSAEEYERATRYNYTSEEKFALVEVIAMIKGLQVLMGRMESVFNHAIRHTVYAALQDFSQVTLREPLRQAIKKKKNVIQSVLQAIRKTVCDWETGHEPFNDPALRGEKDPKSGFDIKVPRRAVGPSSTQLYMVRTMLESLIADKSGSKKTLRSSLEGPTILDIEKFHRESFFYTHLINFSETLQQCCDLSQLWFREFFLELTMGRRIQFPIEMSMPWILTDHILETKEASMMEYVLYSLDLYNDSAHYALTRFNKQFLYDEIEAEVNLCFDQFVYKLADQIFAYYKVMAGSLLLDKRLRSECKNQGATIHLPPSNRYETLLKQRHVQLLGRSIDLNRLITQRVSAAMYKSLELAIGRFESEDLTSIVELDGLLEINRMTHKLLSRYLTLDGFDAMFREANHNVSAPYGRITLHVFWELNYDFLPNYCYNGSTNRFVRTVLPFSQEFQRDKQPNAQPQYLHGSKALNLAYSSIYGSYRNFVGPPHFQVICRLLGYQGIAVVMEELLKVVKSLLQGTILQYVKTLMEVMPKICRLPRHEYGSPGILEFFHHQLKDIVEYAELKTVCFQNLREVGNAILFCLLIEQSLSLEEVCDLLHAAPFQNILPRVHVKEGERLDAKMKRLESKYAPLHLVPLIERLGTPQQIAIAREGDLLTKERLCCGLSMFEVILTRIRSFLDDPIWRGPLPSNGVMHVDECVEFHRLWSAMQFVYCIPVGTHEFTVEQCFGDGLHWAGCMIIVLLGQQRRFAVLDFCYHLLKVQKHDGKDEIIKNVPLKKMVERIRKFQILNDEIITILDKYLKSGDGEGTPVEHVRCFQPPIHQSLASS
UniProt Q9Y6W5: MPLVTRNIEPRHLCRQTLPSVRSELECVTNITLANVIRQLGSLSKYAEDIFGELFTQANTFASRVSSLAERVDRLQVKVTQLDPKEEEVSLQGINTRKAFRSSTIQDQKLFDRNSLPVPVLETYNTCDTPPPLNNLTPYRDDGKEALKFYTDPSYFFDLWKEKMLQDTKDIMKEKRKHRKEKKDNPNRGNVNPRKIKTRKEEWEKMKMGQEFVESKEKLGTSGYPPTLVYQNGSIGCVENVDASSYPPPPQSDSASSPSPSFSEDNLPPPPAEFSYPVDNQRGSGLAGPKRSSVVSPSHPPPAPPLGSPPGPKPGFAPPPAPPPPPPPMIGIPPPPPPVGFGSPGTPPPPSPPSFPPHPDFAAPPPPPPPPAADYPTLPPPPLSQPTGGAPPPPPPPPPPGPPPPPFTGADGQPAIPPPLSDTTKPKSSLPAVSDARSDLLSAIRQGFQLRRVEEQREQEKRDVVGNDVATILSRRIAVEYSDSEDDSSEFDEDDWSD

Target: CYFIP1/SRA1, a subunit of the WAVE2 protein complex, endogenous protein of MCF-7 cells (human (endogenous in MCF-7)) (UniProt Q7L576)
Assay: co-IP; MCF-7 cells, endogenous proteins; anti-GAS7 and anti-CYFIP1 antibodies used for IP and western blotting; normal goat IgG as negative control

WASP-family verprolin-homologous protein 2 (WAVE2), endogenous protein of MCF-7 cells (from UniProt Q9Y6W5 1-498)
binding: binds
